# Library screen at single concentrations

T. brucei: 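Whole-parasite assay of Trypanosoma brucei over 72 hours; the read-out is not stated. Compounds at 30 µM. Higher reads as stronger inhibition (inferred: compounds with an IC50 in retests scored well above the rest). Values scatter widely below zero; nearly all retest evidence comes from the higher of the two concentrations used. About 64,000 compounds were tested under these conditions; 1.5% (about 940) showed 50% or more at least once.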
Toxoplasma: 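Assay of Toxoplasma gondii numbers, read through their beta-galactosidase reporter with a colour substrate. Concentration: 10 µM. The record gives no direction; the compounds picked for IC50 retests had high values, so higher reads as fewer parasites. About 67,000 compounds were tested under these conditions; 0.38% (about 260) showed 50% or more at least once.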

Results are given as percent effect.
How 0% and 100% were set is not recorded. Most values in the screen are low, and negative values occur.
This is an unselected part of the compounds tested.

Result for CC1(C)Cc2nc(C(C)(C)C)ncc2C(NC(=O)CN)C1 (stereo not shown) was T. brucei: -43.57%; Toxoplasma: -5.099%. Result for COc1ccc(NC(=O)N2CCC3(CC2)NC(=O)CC3C(=O)O)c(C)c1 (stereo not shown) was T. brucei: -6.875%; Toxoplasma: -4.309%. O=C(O)C(F)(F)F.c1csc(CN2CCC3(CCCN(c4nncs4)C3)C2)n1 (stereo not shown) read T. brucei: -164.9%; Toxoplasma: -4.099%. For CCN(CCn1cccn1)Cc1nc(-c2ccccc2F)oc1C the result was T. brucei: 33.36%; Toxoplasma: -8.956%. With CC(O)CN1CCN(C(=O)c2cccn2Cc2cccnc2)CC1 (stereo not shown) the screen gave T. brucei: -3.411%; Toxoplasma: 4.205%.

Cc1cc(C)n(CCCN(C)C(=O)[C@H]2CCCO2)n1 gave T. brucei: -13.11%; Toxoplasma: 9.119%. For COc1ccc(OCCN2CCCN(Cc3noc(C)n3)CC2)cc1 the result was T. brucei: -33.44%; Toxoplasma: 9.212%. With CS(=O)(=O)CC(=O)NCC1OCCc2cn(CC3CC3)nc21 (stereo not shown) the screen gave T. brucei: -66.13%; Toxoplasma: -1.919%. For Cc1cnc(NC(=O)c2cccc(CN(C)Cc3ccno3)c2)s1 the result was T. brucei: -19.16%; Toxoplasma: 7.851%. Result for Cc1cc2nc(CO[C@H]3CN(C4CCC4)C[C@H]3F)[nH]c2cc1C was T. brucei: 0.7824%; Toxoplasma: 2.863%.

Cc1cnc(C(=O)N(C)Cc2nc(-c3ccccn3)no2)cn1 read T. brucei: -219.2%; Toxoplasma: 1.634%. CCOc1ccc(-c2ccnc(C3CC3)n2)cc1C(=O)O gave T. brucei: -0.03939%; Toxoplasma: -13.87%. O=C(O)C(F)(F)F.O=C1NC2(CCN(c3ncccn3)CC2)CC1c1cccnc1 (stereo not shown) read T. brucei: -23.22%; Toxoplasma: -12.5%. With CCSc1ccccc1C(=O)N(CCOC)Cc1ccoc1 the screen gave T. brucei: 1.07%; Toxoplasma: -4.805%. Cc1nnc(N2CCOC(C)(C(=O)NC3CCCC3)C2)c2ccccc12 (stereo not shown) gave T. brucei: 0.3985%; Toxoplasma: -1.713%.

Cc1ccc(N2CCCc3sc(C(=O)NCc4cccnc4)nc32)nn1 read T. brucei: 12.22%; Toxoplasma: 12.55%. With Cc1nn(C)c(C)c1-c1ccc(=O)n(C(C)C(=O)NCc2ccco2)n1 (stereo not shown) the screen gave T. brucei: -19.64%; Toxoplasma: 14.61%. For COCCn1cnc2ccc(NC(=O)C(C)C)cc2c1=O the result was T. brucei: 8.352%. With N#CCSCCCN1CCN(C(=O)c2ccc(Cl)cc2)CC1 the screen gave T. brucei: -55.84%; Toxoplasma: 9.128%. Result for Cc1n[nH]c(C)c1C1COCCN1C(=O)c1cc(F)ccc1F (stereo not shown) was T. brucei: -0.3197%; Toxoplasma: -8.529%.

With CS(=O)(=O)N1CCCC1C(=O)Nc1cnc2n1CCCC2 (stereo not shown) the screen gave T. brucei: -22.66%; Toxoplasma: -3.914%. Result for COCC(=O)N1CCc2cccc(S(=O)(=O)N3CCN(C)CC3)c2C1 was T. brucei: -34.05%; Toxoplasma: -6.139%. For [H][C@@]12C[C@@H](OCc3ccccc3)C[C@]1([H])CN(Cc1cncnc1)C2 the result was T. brucei: -7.208%; Toxoplasma: -18.66%. Result for CCCC(O)CN1CCC(=O)N(CC)Cc2cc3c(cc21)OCO3 (stereo not shown) was T. brucei: 14.13%; Toxoplasma: 5.139%. Result for COc1cc(N2CCC3(CC2)CN(S(C)(=O)=O)c2ccccc23)ncn1 was T. brucei: -8.421%; Toxoplasma: -1.121%.

Data taken from ChEMBL document CHEMBL3988442, “University of Dundee, Small-Polar-MMV Screening Library” (2021).